According to ChEMBL document CHEMBL1921676, “Pyrazolone-based anaplastic lymphoma kinase (ALK) inhibitors: control of selectivity by a benzyloxy group” (Bioorg Med Chem Lett, 2011):

Assays:
[1] = physchem; settings: buffer, pH 2
[2] = Aqueous solubility of the compound at pH 7.4; settings: buffer

Compound: CCOc1cccc2c1c(/C=C1\C(=O)NN=C1c1snnc1C)cn2C
- solubility [1]: < 1 µg/mL
- solubility [2]: < 1 µg/mL
